According to doi:10.1101/2022.05.11.491551:
Numbering of substitutions follows the chain as printed. Like-named read-outs stand apart in the source and are kept apart here. These are yes or no findings as the source states them, for the method shown. Some binding calls cover weakened binding; strength is not graded here. Tags and fused reporters may be left off the sequences shown.

Amino acid sequences for entries named in this document (tags omitted).
UniProt P48578: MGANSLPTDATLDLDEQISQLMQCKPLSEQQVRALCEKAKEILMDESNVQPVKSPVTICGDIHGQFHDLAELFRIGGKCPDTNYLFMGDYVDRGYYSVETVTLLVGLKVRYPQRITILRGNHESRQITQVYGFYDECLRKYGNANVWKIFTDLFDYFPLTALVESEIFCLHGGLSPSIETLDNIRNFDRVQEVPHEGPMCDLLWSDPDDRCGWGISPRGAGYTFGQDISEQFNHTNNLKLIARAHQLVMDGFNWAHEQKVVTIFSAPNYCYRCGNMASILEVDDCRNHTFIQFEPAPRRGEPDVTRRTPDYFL

T1: PP2A regulatory subunit Bβ S460A (phospho-dead), yeast two-hybrid fusion (Arabidopsis thaliana) (UniProt Q39247)
T1 sequence: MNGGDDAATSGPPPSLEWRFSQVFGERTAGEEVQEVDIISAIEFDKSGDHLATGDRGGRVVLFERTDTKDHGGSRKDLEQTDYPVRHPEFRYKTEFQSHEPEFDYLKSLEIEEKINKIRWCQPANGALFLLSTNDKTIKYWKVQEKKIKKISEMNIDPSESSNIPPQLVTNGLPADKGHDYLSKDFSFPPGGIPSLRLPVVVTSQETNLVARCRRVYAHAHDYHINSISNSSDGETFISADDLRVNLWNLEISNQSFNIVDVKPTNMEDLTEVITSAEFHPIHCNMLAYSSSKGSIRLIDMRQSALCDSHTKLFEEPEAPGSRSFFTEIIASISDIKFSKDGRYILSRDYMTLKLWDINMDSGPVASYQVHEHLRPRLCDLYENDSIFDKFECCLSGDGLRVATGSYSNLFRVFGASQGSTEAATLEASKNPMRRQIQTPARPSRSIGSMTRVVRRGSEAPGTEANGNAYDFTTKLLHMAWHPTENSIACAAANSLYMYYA

T2: PP2A scaffolding subunit A2, yeast two-hybrid fusion (Arabidopsis thaliana) (UniProt Q38950)
T2 sequence: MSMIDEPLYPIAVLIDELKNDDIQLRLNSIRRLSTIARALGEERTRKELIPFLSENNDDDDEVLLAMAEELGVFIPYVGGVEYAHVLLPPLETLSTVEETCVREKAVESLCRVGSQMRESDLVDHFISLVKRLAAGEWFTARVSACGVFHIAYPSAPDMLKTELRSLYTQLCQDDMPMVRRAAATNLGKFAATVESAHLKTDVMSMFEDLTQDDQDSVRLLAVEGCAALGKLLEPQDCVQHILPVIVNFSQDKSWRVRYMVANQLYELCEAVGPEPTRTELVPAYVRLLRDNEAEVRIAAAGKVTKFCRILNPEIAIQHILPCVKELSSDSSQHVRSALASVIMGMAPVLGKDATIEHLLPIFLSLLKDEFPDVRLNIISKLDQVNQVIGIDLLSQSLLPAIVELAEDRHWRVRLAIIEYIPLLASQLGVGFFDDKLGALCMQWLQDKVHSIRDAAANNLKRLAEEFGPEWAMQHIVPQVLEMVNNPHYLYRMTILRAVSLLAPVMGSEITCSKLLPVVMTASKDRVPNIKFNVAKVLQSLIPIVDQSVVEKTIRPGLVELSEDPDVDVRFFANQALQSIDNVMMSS

T3: PP2A regulatory subunit Bβ S460E (phospho-mimic), yeast two-hybrid fusion (Arabidopsis thaliana) (UniProt Q39247)
T3 sequence: T1 sequence with A460E

T4: PP2A regulatory subunit Bβ, yeast two-hybrid fusion (Arabidopsis thaliana) (UniProt Q39247)
T4 sequence: T1 sequence with A460S

B1: ETHYLENE … ROOT 1 (EIR1), yeast two-hybrid fusion (protein, UniProt Q9LU77 1-647)
chain: MITGKDMYDVLAAMVPLYVAMILAYGSVRWWGIFTPDQCSGINRFVAVFAVPLLSFHFISSNDPYAMNYHFLAADSLQKVVILAALFLWQAFSRRGSLEWMITLFSLSTLPNTLVMGIPLLRAMYGDFSGNLMVQIVVLQSIIWYTLMLFLFEFRGAKLLISEQFPETAGSITSFRVDSDVISLNGREPLQTDAEIGDDGKLHVVVRRSSAASSMISSFNKSHGGGLNSSMITPRASNLTGVEIYSVQSSREPTPRASSFNQTDFYAMFNASKAPSPRHGYTNSYGGAGAGPGGDVYSLQSSKGVTPRTSNFDEEVMKTAKKAGRGGRSMSGELYNNNSVPSYPPPNPMFTGSTSGASGVKKKESGGGGSGGGVGVGGQNKEMNMFVWSSSASPVSEANAKNAMTRGSSTDVSTDPKVSIPPHDNLATKAMQNLIENMSPGRKGHVEMDQDGNNGGKSPYMGKKGSDVEDGGPGPRKQQMPPASVMTRLILIMVWRKLIRNPNTYSSLFGLAWSLVSFKWNIKMPTIMSGSISILSDAGLGMAMFSLGLFMALQPKIIACGKSVAGFAMAVRFLTGPAVIAATSIAIGIRGDLLHIAIVQAALPQGIVPFVFAKEYNVHPDILSTAVIFGMLVALPVTVLYYVLLGL

Columns and labels:
Assay in all cases: two-hybrid
[1] = biological target: T1, PP2A regulatory subunit Bβ S460A (phospho-dead), yeast two-hybrid fusion (Arabidopsis thaliana)
[2] = biological target: T2, PP2A scaffolding subunit A2, yeast two-hybrid fusion (Arabidopsis thaliana)
[3] = biological target: T3, PP2A regulatory subunit Bβ S460E (phospho-mimic), yeast two-hybrid fusion (Arabidopsis thaliana)
[4] = biological target: T4, PP2A regulatory subunit Bβ, yeast two-hybrid fusion (Arabidopsis thaliana)
[5] = biological target: T2, PP2A scaffolding subunit A2, yeast two-hybrid fusion (Arabidopsis thaliana); remark: listed apart in the source
[6] = biological target: T4, PP2A regulatory subunit Bβ, yeast two-hybrid fusion (Arabidopsis thaliana); remark: listed apart in the source

Row | Molecule | binding [1] | binding [2] | binding [3] | binding [4] | binding [5] | binding [6]
1 | PP2A catalytic subunit C4, yeast two-hybrid fusion (from UniProt P48578 1-313) (enzyme) | binds | binds | no binding | binds | – | –
2 | B1 | – | – | – | – | binds | no binding
